Experimental data as given in PubChem BioAssay AID1487 (National Center for Advancing Translational Sciences (NCATS), 2009).
“And” between values parts separate entries of the source, which are not always exact repeats. Equal entries are not always repeated. This is one part of the list. These are further read-outs of the screen, such as a control signal, another cell line or another target. No call is given for them. Compounds called inactive in the main read-out are mostly missing here. The note in brackets gives the kind of curve behind each potency; many fits are weak.

Assay: qHTS Assay for Modulators of Lamin A Splicing
Details: HeLa LMNA splicing GFP/RFP minigene ratio, 48 h
In short: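 S3 HeLa cells stably expressing lamin A-EGFP splicing minigene plus DsRed2, 600 cells/well, 48 h compound exposure at 37C. Laser-scanning cytometry; analysed as GFP (500-530 nm)/RFP (575-640 nm) total intensity ratio; 0.5% DMSO vehicle.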

[1] = measured here: GFP splicing reporter channel
[2] = measured here: RFP viability control channel

In the case of `CCCn1c(N2CCC(Cc3ccccc3)CC2)nc2c1c(=O)[nH]c(=O)n2C`, the AC50 [1] is reported as 10 µM [rising, partial curve].
With `CCOC(=O)c1c(S(=O)(=O)N2CCCC(C(=O)Nc3ncccc3C)C2)c(C)n(C)c1C` (stereo not given) the AC50 [1] was 0.00316 µM [falling, full curve, poor fit] and the AC50 [2] was 0.00316 µM [falling, full curve, poor fit].
In the case of `COc1ccc(NC(=O)[C@@H](NC(N)=O)C(C)C)cc1Cl`, the AC50 [1] is reported as 3.16 µM [rising, partial curve].
With `Cc1ccc(NC(=O)CCc2c(C)nn(-c3ccc(N4CCOCC4)nn3)c2C)cc1F` the AC50 [2] was 5.62 µM [falling, partial curve, poor fit].
In the case of `CCn1c(-c2cc(-c3ccc(C)cc3)nc3ccccc23)n[nH]c1=S`, the AC50 [2] is reported as 35.5 µM [rising, single point].
With `Cc1nc(N)sc1C(=O)N/N=C/c1ccco1` the AC50 [1] was 0.158 µM [rising, full curve, poor fit] and the AC50 [2] was 0.0794 µM [rising, partial curve, poor fit].
For `COc1cccc(-c2ccc3ncnc(NCc4ccccc4OC)c3c2)c1`, the AC50 [1] was 12.6 µM [falling, partial curve] and the AC50 [2] was 17.8 µM [falling, single point].
For `O=C1c2ccccc2NC(c2ccc(-c3cccc(Cl)c3)o2)N1O` (stereo not given), the AC50 [2] was 35.5 µM [rising, single point].
For `Cc1ccc(S(=O)(=O)N[C@@H](Cc2ccccc2)C(=O)CCl)cc1`, the AC50 [1] was 2.82 µM [falling, full curve] and the AC50 [2] was 7.08 µM [falling, partial curve] and 2.82 µM [falling, full curve].
With `Cn1cccc1/C=C1\SC(=S)N(NC(=O)c2ccccc2)C1=O` the AC50 [2] was 22.4 µM [rising, partial curve].
With `CCCOC(=O)CN1C(=O)c2ccc(C(=O)OCCC)cc2C1=O` the AC50 [2] was 0.794 µM [falling, single point].
With `CCCCN(C)CCNC(=O)Cn1ncc2c([nH]c3ccccc32)c1=O` the AC50 [2] was 31.6 µM [rising, partial curve, poor fit].
In the case of `COc1ccc(NC(=O)c2csc(Cc3ccccc3)n2)cc1`, the AC50 [2] is reported as 17.8 µM [rising, partial curve].
In the case of `O=C(Nc1cnc2sc3c(n2c1=O)CCCC3)c1ccc(F)cc1`, the AC50 [1] is reported as 15.8 µM [rising, single point] and the AC50 [2] is reported as 31.6 µM [rising, single point].
With `CC(=O)O[C@]1(C(C)=O)CCC2C3CCC4=CC(=O)CCC4(C)C3(F)C(O)CC21C` (stereo not given in full) the AC50 [2] was 0.0126 µM [falling, full curve, poor fit].
